The full ranking holds about 33,000 sequences; the median of “E-score (-0.5 to 0.5)” is about -0.0034, and the highest 2% start at about 0.25. This is one part of the list.
Target: T1, Yap3 (UniProt P38749)
T1 sequence: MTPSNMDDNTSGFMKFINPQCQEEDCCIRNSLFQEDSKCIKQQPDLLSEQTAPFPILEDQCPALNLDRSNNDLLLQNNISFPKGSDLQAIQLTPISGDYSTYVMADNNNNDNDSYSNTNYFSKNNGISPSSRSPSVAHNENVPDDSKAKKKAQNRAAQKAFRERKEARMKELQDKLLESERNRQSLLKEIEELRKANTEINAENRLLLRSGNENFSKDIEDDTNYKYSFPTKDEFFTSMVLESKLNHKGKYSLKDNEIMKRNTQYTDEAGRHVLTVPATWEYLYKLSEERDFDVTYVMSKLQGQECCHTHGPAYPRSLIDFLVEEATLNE
Experiment: PBM E-score (8-mer binding enrichment) (E-score (-0.5 to 0.5)); higher = stronger / more preferred TF binding
Details: protein concentration: 100 nM; construct: GST-full length
Summary of the method: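 The E-score, a modified Wilcoxon-Mann-Whitney statistic, was computed by the Universal PBM Analysis Suite for every ungapped eight-base word pooled with its reverse complement. Scans behind it were normalised with masliner after bound GST-tagged yeast transcription factors were detected with fluorescent anti-GST. The proteins, at about 100-200 nM, had been applied to universal all-10-mer Agilent arrays made double-stranded by primer extension.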

Row | Sequence | PBM E-score
1 | ATCAGAGA | 0.0237
2 | CATTCTAA | 0.0609
3 | AATCACTC | 0.0336
4 | ACCCGCGT | -0.16
5 | GGGGCAGA | -0.0806
6 | GTTTCGCA | -0.0743
7 | CATATACC | -0.0636
8 | TACTATCA | 0.172
9 | AGGTTTCA | 0.0131
10 | GAAGTGTC | 0.0127
11 | ACTGAGTG | 0.0252
12 | CCTGCTGC | -0.0918
13 | ACTAAGCA | 0.0694
14 | TGCCACCA | -0.258
15 | ACTGATAG | 0.0655
16 | ACGTTAAG | 0.0512
17 | AGTAGGAC | -0.0996
18 | AGATCAGA | -0.0379
19 | CGTTCTCC | -0.0298
20 | ACCTAAGC | 0.0579
21 | CGGATACC | -0.0378
22 | CGGACCGC | -0.317

Row | Sequence | PBM E-score
23 | AATCTAGA | -0.0627
24 | GGTGCTCA | -0.14
25 | ATCTAACG | 0.0542
26 | AGAAGCAC | -0.0604
27 | TGAAGACA | -0.0243
28 | GATAAGAA | 0.124
29 | CCCGGCCA | -0.287
30 | CGCGCCGA | -0.036
31 | AGCCGACT | -0.216
32 | ACAAACAG | 0.118
33 | TCTGGGCA | -0.171
34 | AGAACGAA | 0.233
35 | CGAGCATC | 0.00988
36 | AGCCGTAC | 0.0242
37 | GAACCAAA | -0.0377
38 | AGCATAAA | 0.12
39 | AGCCACCC | -0.369
40 | ACCGAAAT | 0.0947
41 | AAAGGTAT | 0.0985
42 | AGCAGTCG | -0.15
43 | ACGTCCAC | -0.0493
44 | AGCCCTTC | -0.275

From entry 35 to 40, copied from above:
Row | Sequence | PBM E-score
35 | CGAGCATC | 0.00988
36 | AGCCGTAC | 0.0242
37 | GAACCAAA | -0.0377
38 | AGCATAAA | 0.12
39 | AGCCACCC | -0.369
40 | ACCGAAAT | 0.0947

Additional results:

Row | Sequence | PBM E-score
45 | CAGCTGCA | -0.168
46 | CAAGTCTC | -0.245
47 | GCTGCGCC | -0.152
48 | CAACTAAG | 0.0225
49 | ACGGTAAA | 0.206
50 | ACTCCAAG | -0.109
51 | TAAAGTGA | 0.263
52 | AAGATAAT | 0.207
53 | GCGGTCAA | -0.00885
54 | CCGCGGTC | -0.222
55 | CATATTTA | 0.185
56 | GCCCTAGC | -0.087
57 | AGTGGGGC | -0.288
58 | GAAGTGCA | -0.02
59 | TCACGTCA | 0.147
60 | TTTGCAAA | 0.174
61 | GTCTAGCA | 0.0493
62 | CCCTCGAG | -0.121
63 | CATCTCGC | 0.0155
64 | AGCTAGTC | 0.0172
65 | AACTGTCA | 0.179
66 | ACCTGCAG | -0.17

Row | Sequence | PBM E-score
67 | AGTTGCGA | 0.199
68 | AGAGCGAC | -0.0543
69 | AGATGACG | 0.108
70 | AAAAACGC | 0.147
71 | AAGACGTC | -0.0582
72 | CCTATGAG | -0.11
73 | GAGTTGCC | 0.0726
74 | ACAATGCG | 0.114
75 | ACAGTGTA | 0.0731
76 | ACCCTTGA | -0.0607
77 | CGCTATAA | 0.0733
78 | TCGGGTCA | 0.0231
79 | AGCCAGTG | -0.215
80 | ATCCGCCG | 0.032
81 | AGTTGTTA | 0.114
82 | AAGCGTGT | -0.124
83 | ACAATGTC | 0.141
84 | AAAAGTGG | 0.195
85 | CCCTGCGG | -0.346
86 | AACACTCT | 0.0132
